Test results from PMC5225548.
Results are given in words; binding and its absence hold for the method and conditions named. Binding seen in cells or lysates may run through a third protein. Some binding calls cover weakened binding; strength is not graded here.

Sequences of proteins named here, by UniProt entry; tags and fusion partners are left off. A change or cut given only in a name is not applied to a line headed by its entry.
UniProt P04792: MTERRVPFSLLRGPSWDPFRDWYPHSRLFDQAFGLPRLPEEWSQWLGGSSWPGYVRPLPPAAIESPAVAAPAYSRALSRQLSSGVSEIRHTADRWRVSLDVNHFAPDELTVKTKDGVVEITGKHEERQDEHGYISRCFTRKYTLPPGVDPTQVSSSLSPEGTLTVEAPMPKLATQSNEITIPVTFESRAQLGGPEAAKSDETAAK
UniProt Q15365: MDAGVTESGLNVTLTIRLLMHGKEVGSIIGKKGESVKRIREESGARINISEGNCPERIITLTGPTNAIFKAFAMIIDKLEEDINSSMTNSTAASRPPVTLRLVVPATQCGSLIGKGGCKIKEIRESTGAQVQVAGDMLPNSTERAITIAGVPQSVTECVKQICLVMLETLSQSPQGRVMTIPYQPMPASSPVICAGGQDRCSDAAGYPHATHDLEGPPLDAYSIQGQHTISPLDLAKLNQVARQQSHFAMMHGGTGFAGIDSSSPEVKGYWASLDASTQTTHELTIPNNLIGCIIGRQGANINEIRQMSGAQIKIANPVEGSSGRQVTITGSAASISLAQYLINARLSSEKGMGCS

Target: HSPB1-P182L fused to a V5-tag (HeLa) (human) (UniProt P04792)
Test: co-IP; transiently transfected HeLa cells; pull-down directed against the V5-tag of the HSPB1 constructs (anti-V5 beads), PCBP1 detected by its VSV-tag; EGFP-V5 as negative control; lysis and wash buffer 0.5% Nonidet P-40 in PBS salts; overnight at 4 °C

For PCBP1-VSV (from UniProt Q15365 1-356), the binding was “binds”.
